From publication PMC3460870
No constants are given. Whether binding was seen depends on the method and setting. Binding seen in cells or lysates may run through a third protein. Some entries that bind do so weakly or less than the wild type. For some of these results: Tags and fused reporters may be left off the sequences shown. One block for each molecule: values may come before it.

By UniProt entry, the sequences of proteins in these tests, tags left out.
UniProt P04406: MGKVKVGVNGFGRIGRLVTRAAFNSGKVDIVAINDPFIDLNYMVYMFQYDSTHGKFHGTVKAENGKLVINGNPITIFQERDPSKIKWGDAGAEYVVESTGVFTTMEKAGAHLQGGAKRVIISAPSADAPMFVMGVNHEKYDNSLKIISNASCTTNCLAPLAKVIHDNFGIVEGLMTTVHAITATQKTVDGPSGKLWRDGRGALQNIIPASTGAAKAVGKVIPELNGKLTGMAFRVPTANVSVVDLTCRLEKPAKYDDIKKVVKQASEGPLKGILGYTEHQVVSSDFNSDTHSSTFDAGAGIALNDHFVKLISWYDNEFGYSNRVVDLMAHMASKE

How the values were obtained:
[1] = biological target: T1, endogenous Vangl2 (human (endogenous in SKBR7)) (UniProt Q9ULK5); test: co-IP; 2G4 mAb immunoprecipitation from SKBR7 cell lysates, 16% SDS-PAGE, blot with anti-GAPDH antibody (Figure S5)
T1 sequence: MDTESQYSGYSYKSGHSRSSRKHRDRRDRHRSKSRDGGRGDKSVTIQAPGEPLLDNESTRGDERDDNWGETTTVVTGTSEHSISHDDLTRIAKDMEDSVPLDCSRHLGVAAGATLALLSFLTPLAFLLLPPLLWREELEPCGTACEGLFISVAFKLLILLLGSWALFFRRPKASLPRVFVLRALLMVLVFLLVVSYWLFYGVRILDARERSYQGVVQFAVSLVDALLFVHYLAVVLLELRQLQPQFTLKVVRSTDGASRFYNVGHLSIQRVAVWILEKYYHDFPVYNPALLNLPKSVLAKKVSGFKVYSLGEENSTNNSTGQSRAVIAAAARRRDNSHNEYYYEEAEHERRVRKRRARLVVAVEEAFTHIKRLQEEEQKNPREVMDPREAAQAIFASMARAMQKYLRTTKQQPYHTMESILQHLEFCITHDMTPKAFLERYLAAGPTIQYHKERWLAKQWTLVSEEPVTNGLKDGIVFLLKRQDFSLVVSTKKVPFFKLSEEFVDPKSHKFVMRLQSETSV

GFP-Vangl2 (mouse) [2] = biological target: T2, GFP-Vangl2 (mouse) (UniProt Q91ZD4); test: co-IP; myc-Vangl1 co-expressed with GFP-Vangl2 in T47D cells; immunoprecipitation with 2G4 mAb (Figure S8)
T2 sequence: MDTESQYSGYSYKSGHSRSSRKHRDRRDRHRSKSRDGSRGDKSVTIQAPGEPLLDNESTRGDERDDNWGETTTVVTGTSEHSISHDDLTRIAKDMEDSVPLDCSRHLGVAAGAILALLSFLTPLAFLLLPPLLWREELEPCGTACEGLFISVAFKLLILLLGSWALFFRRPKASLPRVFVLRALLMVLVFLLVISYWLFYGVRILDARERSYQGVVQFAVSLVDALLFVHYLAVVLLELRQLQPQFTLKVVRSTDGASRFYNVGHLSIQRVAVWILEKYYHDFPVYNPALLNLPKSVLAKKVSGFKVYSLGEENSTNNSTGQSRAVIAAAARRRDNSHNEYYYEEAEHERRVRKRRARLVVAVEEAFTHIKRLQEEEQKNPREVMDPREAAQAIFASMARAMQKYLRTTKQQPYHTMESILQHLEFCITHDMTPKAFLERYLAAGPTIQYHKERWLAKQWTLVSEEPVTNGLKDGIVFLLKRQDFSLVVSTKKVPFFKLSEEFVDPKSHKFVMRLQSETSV

myc-Vangl1 = biological target: T3, myc-Vangl1 (UniProt Q80Z96); test: co-IP; myc-Vangl1 co-expressed with GFP-Vangl2, its truncations or GFP in T47D cells; immunoprecipitation with anti-myc antibody, western blot
T3 sequence: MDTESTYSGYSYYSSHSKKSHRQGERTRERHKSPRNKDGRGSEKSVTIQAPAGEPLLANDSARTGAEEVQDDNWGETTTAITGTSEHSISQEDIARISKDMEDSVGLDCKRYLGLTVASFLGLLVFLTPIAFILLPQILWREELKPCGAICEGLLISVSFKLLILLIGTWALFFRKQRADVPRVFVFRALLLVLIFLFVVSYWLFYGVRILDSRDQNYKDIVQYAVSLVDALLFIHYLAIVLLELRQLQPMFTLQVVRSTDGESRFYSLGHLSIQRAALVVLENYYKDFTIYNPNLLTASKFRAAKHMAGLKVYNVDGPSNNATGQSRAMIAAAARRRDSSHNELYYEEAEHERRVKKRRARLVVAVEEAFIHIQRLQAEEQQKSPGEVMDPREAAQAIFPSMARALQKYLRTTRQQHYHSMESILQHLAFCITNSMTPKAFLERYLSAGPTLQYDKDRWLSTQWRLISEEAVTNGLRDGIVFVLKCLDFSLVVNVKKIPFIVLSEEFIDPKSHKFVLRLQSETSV

GFP-Vangl2 (mouse) [3] = biological target: T2, GFP-Vangl2 (mouse); test: co-IP; Vangl2 with two different tags (GFP or myc) co-expressed in T47D cells; immunoprecipitation with anti-GFP antibody and western blot with anti-myc antibody (the legend says immunoprecipitation with Myc antibody)

binding [1]: no binding
Molecule: GAPDH (from UniProt P04406 1-335)

binding (GFP-Vangl2 (mouse) [2]): binds
B1: myc-Vangl1 (protein, UniProt Q80Z96 1-526)
chain: MDTESTYSGYSYYSSHSKKSHRQGERTRERHKSPRNKDGRGSEKSVTIQAPAGEPLLANDSARTGAEEVQDDNWGETTTAITGTSEHSISQEDIARISKDMEDSVGLDCKRYLGLTVASFLGLLVFLTPIAFILLPQILWREELKPCGAICEGLLISVSFKLLILLIGTWALFFRKQRADVPRVFVFRALLLVLIFLFVVSYWLFYGVRILDSRDQNYKDIVQYAVSLVDALLFIHYLAIVLLELRQLQPMFTLQVVRSTDGESRFYSLGHLSIQRAALVVLENYYKDFTIYNPNLLTASKFRAAKHMAGLKVYNVDGPSNNATGQSRAMIAAAARRRDSSHNELYYEEAEHERRVKKRRARLVVAVEEAFIHIQRLQAEEQQKSPGEVMDPREAAQAIFPSMARALQKYLRTTRQQHYHSMESILQHLAFCITNSMTPKAFLERYLSAGPTLQYDKDRWLSTQWRLISEEAVTNGLRDGIVFVLKCLDFSLVVNVKKIPFIVLSEEFIDPKSHKFVLRLQSETSV

binding (myc-Vangl1): binds
binding (GFP-Vangl2 (mouse) [3]): binds
B2: GFP-Vangl2 (protein, UniProt Q91ZD4 1-521)
chain: MDTESQYSGYSYKSGHSRSSRKHRDRRDRHRSKSRDGSRGDKSVTIQAPGEPLLDNESTRGDERDDNWGETTTVVTGTSEHSISHDDLTRIAKDMEDSVPLDCSRHLGVAAGAILALLSFLTPLAFLLLPPLLWREELEPCGTACEGLFISVAFKLLILLLGSWALFFRRPKASLPRVFVLRALLMVLVFLLVISYWLFYGVRILDARERSYQGVVQFAVSLVDALLFVHYLAVVLLELRQLQPQFTLKVVRSTDGASRFYNVGHLSIQRVAVWILEKYYHDFPVYNPALLNLPKSVLAKKVSGFKVYSLGEENSTNNSTGQSRAVIAAAARRRDNSHNEYYYEEAEHERRVRKRRARLVVAVEEAFTHIKRLQEEEQKNPREVMDPREAAQAIFASMARAMQKYLRTTKQQPYHTMESILQHLEFCITHDMTPKAFLERYLAAGPTIQYHKERWLAKQWTLVSEEPVTNGLKDGIVFLLKRQDFSLVVSTKKVPFFKLSEEFVDPKSHKFVMRLQSETSV
